Data as given in PubChem BioAssay AID1508597 (Cure First, 2020).
The deposit covers about 2,100 reagents; this is an unselected part. 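Calls flag viability under 80% in either arm, not effects specific to rucaparib; the reference for percent is not stated.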 Not given: the 100% reference.

Test: 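Genes whose silencing sensitises or protects ovarian cancer cells against rucaparib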 (primary screen)
Cell system: human ovarian carcinoma lines grown from tumours: OCI-P5x (papillary serous) and OCI-C5x (clear cell)
Reagent: siRNA pool against human genes, 1.25 pmol siRNA per well
Timing: 72 h or 96 h, depending on the cell culture
Conditions: rucaparib 20 µM (about IC30) or vehicle, present until read-out
Detection: 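ATP luminescence measured at 72 or 96 h according to the culture, then normalised and expressed as percent viability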
Scale: viability, normalised: higher = more viable cells remaining
Rule for the call: 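a well counts as a hit if its normalised viability is under 80 percent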
Calls: active = viability under 80%; inactive = viability 80% or more

TPP1 (tripeptidyl peptidase 1), rucaparib or vehicle Rucaparib, cell line OCI-C5x (clear cell), technical replicate 1 gave viability, normalised (%) = 81.8; inactive.
TPP1 (tripeptidyl peptidase 1), rucaparib or vehicle Rucaparib, cell line OCI-C5x (clear cell), technical replicate 2 gave viability, normalised (%) = 67; active.
With TPP1 (tripeptidyl peptidase 1), rucaparib or vehicle Rucaparib, cell line OCI-C5x (clear cell), technical replicate 3, the values are viability, normalised (%) = 52.9; active.
With TPP1 (tripeptidyl peptidase 1), rucaparib or vehicle Rucaparib, cell line OCI-P5x (serous), technical replicate 1, the values are viability, normalised (%) = 73; active.
For TPP1 (tripeptidyl peptidase 1), rucaparib or vehicle Rucaparib, cell line OCI-P5x (serous), technical replicate 2 the deposit lists viability, normalised (%) = 70.7; active.
TPP1 (tripeptidyl peptidase 1), rucaparib or vehicle Rucaparib, cell line OCI-P5x (serous), technical replicate 3 showed viability, normalised (%) = 62.2; active.
TPP1 (tripeptidyl peptidase 1), rucaparib or vehicle Vehicle, cell line OCI-C5x (clear cell), technical replicate 1 gave viability, normalised (%) = 49; active.
TPP1 (tripeptidyl peptidase 1), rucaparib or vehicle Vehicle, cell line OCI-C5x (clear cell), technical replicate 2 scored viability, normalised (%) = 57.8; active.
With TPP1 (tripeptidyl peptidase 1), rucaparib or vehicle Vehicle, cell line OCI-C5x (clear cell), technical replicate 3, the entry reads viability, normalised (%) = 50.8; active.
For TPP1 (tripeptidyl peptidase 1), rucaparib or vehicle Vehicle, cell line OCI-P5x (serous), technical replicate 1 the deposit lists viability, normalised (%) = 64.7; active.
TPP1 (tripeptidyl peptidase 1), rucaparib or vehicle Vehicle, cell line OCI-P5x (serous), technical replicate 2 showed viability, normalised (%) = 65.4; active.
With TPP1 (tripeptidyl peptidase 1), rucaparib or vehicle Vehicle, cell line OCI-P5x (serous), technical replicate 3 the deposit lists viability, normalised (%) = 65.1; active.
RAD17 (RAD17 checkpoint clamp loader component), rucaparib or vehicle Rucaparib, cell line OCI-C5x (clear cell), technical replicate 1 gave viability, normalised (%) = 54.2; active.
RAD17 (RAD17 checkpoint clamp loader component), rucaparib or vehicle Rucaparib, cell line OCI-C5x (clear cell), technical replicate 2 showed viability, normalised (%) = 50.5; active.
RAD17 (RAD17 checkpoint clamp loader component), rucaparib or vehicle Rucaparib, cell line OCI-C5x (clear cell), technical replicate 3 showed viability, normalised (%) = 59.5; active.
RAD17 (RAD17 checkpoint clamp loader component), rucaparib or vehicle Rucaparib, cell line OCI-P5x (serous), technical replicate 1 scored viability, normalised (%) = 76.3; active.
RAD17 (RAD17 checkpoint clamp loader component), rucaparib or vehicle Rucaparib, cell line OCI-P5x (serous), technical replicate 2 gave viability, normalised (%) = 63.2; active.
With RAD17 (RAD17 checkpoint clamp loader component), rucaparib or vehicle Rucaparib, cell line OCI-P5x (serous), technical replicate 3, the values are viability, normalised (%) = 64.5; active.
RAD17 (RAD17 checkpoint clamp loader component), rucaparib or vehicle Vehicle, cell line OCI-C5x (clear cell), technical replicate 1 gave viability, normalised (%) = 59; active.
For RAD17 (RAD17 checkpoint clamp loader component), rucaparib or vehicle Vehicle, cell line OCI-C5x (clear cell), technical replicate 2, the values are viability, normalised (%) = 46.7; active.
RAD17 (RAD17 checkpoint clamp loader component), rucaparib or vehicle Vehicle, cell line OCI-C5x (clear cell), technical replicate 3 scored viability, normalised (%) = 51.2; active.
RAD17 (RAD17 checkpoint clamp loader component), rucaparib or vehicle Vehicle, cell line OCI-P5x (serous), technical replicate 1 gave viability, normalised (%) = 63.8; active.
With RAD17 (RAD17 checkpoint clamp loader component), rucaparib or vehicle Vehicle, cell line OCI-P5x (serous), technical replicate 2 the deposit lists viability, normalised (%) = 67.2; active.
With RAD17 (RAD17 checkpoint clamp loader component), rucaparib or vehicle Vehicle, cell line OCI-P5x (serous), technical replicate 3, the entry reads viability, normalised (%) = 53.6; active.

A few values from the list:
Under “Outcome”, RAD17 (RAD17 checkpoint clamp loader component), rucaparib or vehicle Rucaparib, cell line OCI-C5x (clear cell), technical replicate 3 shows active
TPP1 (tripeptidyl peptidase 1), rucaparib or vehicle Vehicle, cell line OCI-P5x (serous), technical replicate 2, viability, normalised (%): 65.4
Value for RAD17 (RAD17 checkpoint clamp loader component), rucaparib or vehicle Rucaparib, cell line OCI-P5x (serous), technical replicate 1 under “viability, normalised (%)”: 76.3
Under “Outcome”, RAD17 (RAD17 checkpoint clamp loader component), rucaparib or vehicle Vehicle, cell line OCI-C5x (clear cell), technical replicate 3 reads active
Result of RAD17 (RAD17 checkpoint clamp loader component), rucaparib or vehicle Vehicle, cell line OCI-P5x (serous), technical replicate 1 under “Outcome”: active

Next records follow.
XRCC1 (X-ray repair cross complementing 1), rucaparib or vehicle Rucaparib, cell line OCI-C5x (clear cell), technical replicate 1 showed viability, normalised (%) = 60.8; active.
With XRCC1 (X-ray repair cross complementing 1), rucaparib or vehicle Rucaparib, cell line OCI-C5x (clear cell), technical replicate 2 the deposit lists viability, normalised (%) = 68.1; active.
With XRCC1 (X-ray repair cross complementing 1), rucaparib or vehicle Rucaparib, cell line OCI-C5x (clear cell), technical replicate 3, the values are viability, normalised (%) = 71.8; active.
XRCC1 (X-ray repair cross complementing 1), rucaparib or vehicle Rucaparib, cell line OCI-P5x (serous), technical replicate 1 showed viability, normalised (%) = 74; active.
With XRCC1 (X-ray repair cross complementing 1), rucaparib or vehicle Rucaparib, cell line OCI-P5x (serous), technical replicate 2 the deposit lists viability, normalised (%) = 79.2; active.
With XRCC1 (X-ray repair cross complementing 1), rucaparib or vehicle Rucaparib, cell line OCI-P5x (serous), technical replicate 3, the entry reads viability, normalised (%) = 76.5; active.
XRCC1 (X-ray repair cross complementing 1), rucaparib or vehicle Vehicle, cell line OCI-C5x (clear cell), technical replicate 1 scored viability, normalised (%) = 56.6; active.
With XRCC1 (X-ray repair cross complementing 1), rucaparib or vehicle Vehicle, cell line OCI-C5x (clear cell), technical replicate 2, the values are viability, normalised (%) = 73.3; active.
For XRCC1 (X-ray repair cross complementing 1), rucaparib or vehicle Vehicle, cell line OCI-C5x (clear cell), technical replicate 3 the deposit lists viability, normalised (%) = 66.6; active.
With XRCC1 (X-ray repair cross complementing 1), rucaparib or vehicle Vehicle, cell line OCI-P5x (serous), technical replicate 1, the entry reads viability, normalised (%) = 82.5; inactive.
XRCC1 (X-ray repair cross complementing 1), rucaparib or vehicle Vehicle, cell line OCI-P5x (serous), technical replicate 2 scored viability, normalised (%) = 77.2; active.
XRCC1 (X-ray repair cross complementing 1), rucaparib or vehicle Vehicle, cell line OCI-P5x (serous), technical replicate 3 scored viability, normalised (%) = 69.6; active.
